Experimental data reported in publication PMC11708023.

Sequences of proteins named here, by UniProt entry; tags and fusion partners are left off. A change or cut given only in a name is not applied to a line headed by its entry.
UniProt P68831: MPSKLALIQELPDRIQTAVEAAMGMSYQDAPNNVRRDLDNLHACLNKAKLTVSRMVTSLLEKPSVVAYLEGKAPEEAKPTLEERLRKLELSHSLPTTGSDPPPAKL
UniProt Q9VLC5: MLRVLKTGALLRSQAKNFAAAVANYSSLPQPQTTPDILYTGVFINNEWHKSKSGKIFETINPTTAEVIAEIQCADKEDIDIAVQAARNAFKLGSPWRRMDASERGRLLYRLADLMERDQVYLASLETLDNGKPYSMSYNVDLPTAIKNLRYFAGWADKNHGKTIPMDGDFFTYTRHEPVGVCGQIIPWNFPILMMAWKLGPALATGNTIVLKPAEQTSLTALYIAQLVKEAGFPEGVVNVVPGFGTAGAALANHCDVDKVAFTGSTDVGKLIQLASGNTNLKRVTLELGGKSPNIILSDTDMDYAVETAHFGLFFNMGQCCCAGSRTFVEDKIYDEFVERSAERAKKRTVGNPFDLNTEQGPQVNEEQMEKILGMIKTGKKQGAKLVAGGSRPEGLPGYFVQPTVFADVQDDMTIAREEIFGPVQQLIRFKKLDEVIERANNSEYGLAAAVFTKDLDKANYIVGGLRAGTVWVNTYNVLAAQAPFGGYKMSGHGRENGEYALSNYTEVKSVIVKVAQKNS
UniProt A1Z9K0: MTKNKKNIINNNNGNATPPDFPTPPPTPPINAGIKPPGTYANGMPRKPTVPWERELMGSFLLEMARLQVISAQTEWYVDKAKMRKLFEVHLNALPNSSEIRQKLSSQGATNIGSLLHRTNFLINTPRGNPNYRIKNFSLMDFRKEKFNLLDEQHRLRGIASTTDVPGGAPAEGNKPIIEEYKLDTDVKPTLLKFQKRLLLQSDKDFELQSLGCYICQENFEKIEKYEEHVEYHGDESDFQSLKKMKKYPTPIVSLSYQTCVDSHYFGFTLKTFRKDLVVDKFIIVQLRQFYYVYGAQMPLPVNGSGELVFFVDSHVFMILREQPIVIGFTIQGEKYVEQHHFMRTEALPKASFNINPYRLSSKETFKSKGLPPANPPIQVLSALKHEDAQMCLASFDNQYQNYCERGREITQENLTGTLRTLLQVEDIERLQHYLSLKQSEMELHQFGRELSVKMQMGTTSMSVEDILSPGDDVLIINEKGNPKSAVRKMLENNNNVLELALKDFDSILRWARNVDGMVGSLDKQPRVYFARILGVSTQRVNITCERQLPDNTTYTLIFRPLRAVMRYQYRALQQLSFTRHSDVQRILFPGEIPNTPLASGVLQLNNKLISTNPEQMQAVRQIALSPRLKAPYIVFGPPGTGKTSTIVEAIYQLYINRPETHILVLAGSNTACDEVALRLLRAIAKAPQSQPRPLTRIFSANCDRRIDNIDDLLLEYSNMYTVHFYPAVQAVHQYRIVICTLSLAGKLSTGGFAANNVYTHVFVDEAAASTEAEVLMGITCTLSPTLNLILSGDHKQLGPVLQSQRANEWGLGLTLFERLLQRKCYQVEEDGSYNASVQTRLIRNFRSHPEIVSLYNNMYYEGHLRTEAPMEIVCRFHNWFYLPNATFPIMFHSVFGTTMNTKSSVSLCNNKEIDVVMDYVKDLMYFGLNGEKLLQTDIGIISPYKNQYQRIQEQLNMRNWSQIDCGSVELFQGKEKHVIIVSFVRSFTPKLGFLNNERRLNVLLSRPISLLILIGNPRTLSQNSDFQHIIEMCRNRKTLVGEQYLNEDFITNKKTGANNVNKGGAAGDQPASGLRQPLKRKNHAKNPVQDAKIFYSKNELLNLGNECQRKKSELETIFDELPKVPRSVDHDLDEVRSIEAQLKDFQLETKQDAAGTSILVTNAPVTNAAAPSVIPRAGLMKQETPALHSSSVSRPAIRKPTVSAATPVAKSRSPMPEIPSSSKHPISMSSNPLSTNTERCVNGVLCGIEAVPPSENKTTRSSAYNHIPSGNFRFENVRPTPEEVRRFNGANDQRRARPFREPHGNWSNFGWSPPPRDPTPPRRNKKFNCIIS
UniProt Q9VXN3: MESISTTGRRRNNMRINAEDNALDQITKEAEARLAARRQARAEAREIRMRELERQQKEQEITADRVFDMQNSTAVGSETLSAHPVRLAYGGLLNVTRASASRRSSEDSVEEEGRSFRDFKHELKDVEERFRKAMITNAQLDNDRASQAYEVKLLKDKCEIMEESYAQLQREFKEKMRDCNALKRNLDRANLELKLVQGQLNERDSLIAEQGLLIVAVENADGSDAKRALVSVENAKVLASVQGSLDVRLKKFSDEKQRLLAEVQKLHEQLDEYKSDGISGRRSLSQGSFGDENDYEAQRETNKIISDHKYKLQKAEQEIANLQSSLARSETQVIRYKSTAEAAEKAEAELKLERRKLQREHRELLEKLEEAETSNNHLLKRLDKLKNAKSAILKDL
UniProt A1ZAW0: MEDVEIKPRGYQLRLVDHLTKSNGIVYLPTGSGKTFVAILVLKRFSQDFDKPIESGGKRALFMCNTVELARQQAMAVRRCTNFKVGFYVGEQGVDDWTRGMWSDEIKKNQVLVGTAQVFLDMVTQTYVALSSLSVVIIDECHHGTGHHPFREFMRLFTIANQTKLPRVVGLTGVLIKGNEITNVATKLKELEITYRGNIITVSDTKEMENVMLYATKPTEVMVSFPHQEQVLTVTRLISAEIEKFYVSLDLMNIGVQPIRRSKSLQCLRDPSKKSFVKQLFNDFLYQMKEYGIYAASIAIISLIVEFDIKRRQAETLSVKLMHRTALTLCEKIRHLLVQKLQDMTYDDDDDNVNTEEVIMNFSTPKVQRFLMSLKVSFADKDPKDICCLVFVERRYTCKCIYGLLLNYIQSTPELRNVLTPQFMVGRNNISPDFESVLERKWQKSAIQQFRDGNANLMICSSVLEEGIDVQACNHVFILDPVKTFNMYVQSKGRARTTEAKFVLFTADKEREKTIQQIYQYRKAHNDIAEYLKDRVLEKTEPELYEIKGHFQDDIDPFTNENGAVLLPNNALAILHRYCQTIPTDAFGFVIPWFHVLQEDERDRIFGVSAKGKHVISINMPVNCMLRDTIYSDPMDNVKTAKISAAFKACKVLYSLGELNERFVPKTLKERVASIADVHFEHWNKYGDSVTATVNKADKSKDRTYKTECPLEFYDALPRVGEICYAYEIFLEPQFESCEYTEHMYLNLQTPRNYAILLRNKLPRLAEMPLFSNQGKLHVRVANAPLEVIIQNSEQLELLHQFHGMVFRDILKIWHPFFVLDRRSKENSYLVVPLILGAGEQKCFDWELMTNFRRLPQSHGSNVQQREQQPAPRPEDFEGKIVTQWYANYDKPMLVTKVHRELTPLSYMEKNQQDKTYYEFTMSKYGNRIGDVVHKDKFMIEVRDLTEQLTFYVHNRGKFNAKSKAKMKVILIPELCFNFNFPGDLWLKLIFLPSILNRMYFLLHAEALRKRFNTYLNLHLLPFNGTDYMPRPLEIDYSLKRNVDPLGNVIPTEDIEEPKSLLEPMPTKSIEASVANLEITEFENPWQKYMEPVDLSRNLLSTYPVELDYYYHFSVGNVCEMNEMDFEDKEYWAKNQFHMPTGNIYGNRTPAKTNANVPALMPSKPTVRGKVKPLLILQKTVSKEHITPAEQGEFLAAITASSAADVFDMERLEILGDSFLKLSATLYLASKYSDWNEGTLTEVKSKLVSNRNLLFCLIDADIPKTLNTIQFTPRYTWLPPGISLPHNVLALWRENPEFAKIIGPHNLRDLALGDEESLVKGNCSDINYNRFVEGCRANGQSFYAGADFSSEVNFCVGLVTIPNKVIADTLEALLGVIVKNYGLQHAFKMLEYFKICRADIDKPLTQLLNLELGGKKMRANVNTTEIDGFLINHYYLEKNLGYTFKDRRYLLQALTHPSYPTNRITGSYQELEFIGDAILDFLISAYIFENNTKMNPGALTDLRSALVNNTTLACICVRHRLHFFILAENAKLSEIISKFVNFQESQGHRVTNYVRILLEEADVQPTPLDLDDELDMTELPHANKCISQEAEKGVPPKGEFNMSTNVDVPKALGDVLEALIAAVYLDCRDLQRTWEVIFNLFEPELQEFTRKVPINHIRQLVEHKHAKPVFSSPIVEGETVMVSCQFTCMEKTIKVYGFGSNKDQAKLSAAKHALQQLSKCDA
UniProt P15007: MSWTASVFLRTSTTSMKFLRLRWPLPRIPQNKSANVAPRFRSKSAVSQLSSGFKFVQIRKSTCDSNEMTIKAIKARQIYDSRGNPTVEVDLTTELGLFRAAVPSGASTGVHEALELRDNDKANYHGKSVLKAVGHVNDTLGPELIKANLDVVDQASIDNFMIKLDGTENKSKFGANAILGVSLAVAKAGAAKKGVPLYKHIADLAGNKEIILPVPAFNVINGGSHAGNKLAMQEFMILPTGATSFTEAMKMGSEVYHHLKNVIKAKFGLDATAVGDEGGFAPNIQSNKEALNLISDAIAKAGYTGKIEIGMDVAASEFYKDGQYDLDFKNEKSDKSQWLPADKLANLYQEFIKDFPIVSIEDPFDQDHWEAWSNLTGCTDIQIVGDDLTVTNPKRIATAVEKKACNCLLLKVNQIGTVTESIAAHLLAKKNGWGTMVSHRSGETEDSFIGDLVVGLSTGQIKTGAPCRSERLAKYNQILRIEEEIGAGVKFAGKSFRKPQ
UniProt P21187: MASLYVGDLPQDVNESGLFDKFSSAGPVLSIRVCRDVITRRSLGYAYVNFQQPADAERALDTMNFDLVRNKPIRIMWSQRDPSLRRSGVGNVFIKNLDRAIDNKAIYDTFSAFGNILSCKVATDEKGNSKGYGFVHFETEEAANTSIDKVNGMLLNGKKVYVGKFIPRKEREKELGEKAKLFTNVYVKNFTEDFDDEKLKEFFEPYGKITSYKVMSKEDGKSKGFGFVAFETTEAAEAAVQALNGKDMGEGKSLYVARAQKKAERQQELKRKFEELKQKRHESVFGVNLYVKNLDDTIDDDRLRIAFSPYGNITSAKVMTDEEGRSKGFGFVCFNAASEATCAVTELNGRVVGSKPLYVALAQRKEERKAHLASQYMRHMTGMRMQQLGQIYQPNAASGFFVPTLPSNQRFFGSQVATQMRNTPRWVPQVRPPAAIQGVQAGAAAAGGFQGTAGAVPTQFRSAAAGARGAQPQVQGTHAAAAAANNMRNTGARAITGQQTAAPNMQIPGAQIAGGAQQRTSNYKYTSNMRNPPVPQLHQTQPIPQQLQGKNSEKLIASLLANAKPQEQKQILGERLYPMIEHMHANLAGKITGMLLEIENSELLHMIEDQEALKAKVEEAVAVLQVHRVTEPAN

target: V5-tagged B2 of Flock House virus (FHV) (Flock House virus) (UniProt P68831); experiment: affinity purification with mass spectrometry; S2 cells transfected with V5-tagged B2 for 48 h; lysate in RIPA buffer immunoprecipitated with anti-V5 antibody on protein A agarose; on-bead trypsin digest, LC-MS/MS; control empty vector / anti-IgG

Substance	binding
ALDH (from UniProt Q9VLC5) (enzyme)	binds
CG6701 (from UniProt A1Z9K0)	binds
CG8578 (from UniProt Q9VXN3) (enzyme)	binds
Dcr-1 (from UniProt Q9VCU9 1-2249) (enzyme)	binds
Dcr-2 (from UniProt A1ZAW0 1-1722) (enzyme)	binds
ENO (from UniProt P15007 1-500) (enzyme)	binds
pAbp (from UniProt P21187 1-634)	binds

Results are given in words; binding and its absence hold for the method and conditions named. In cells and extracts the contact can be indirect. A yes stands for co-enrichment or nearness to the bait. Other partners may have been found.
